{
  "sequences": {"note": "Sequences of proteins named here, by UniProt entry; tags and fusion partners are left off.", "UniProt A0A1D8PJ17": "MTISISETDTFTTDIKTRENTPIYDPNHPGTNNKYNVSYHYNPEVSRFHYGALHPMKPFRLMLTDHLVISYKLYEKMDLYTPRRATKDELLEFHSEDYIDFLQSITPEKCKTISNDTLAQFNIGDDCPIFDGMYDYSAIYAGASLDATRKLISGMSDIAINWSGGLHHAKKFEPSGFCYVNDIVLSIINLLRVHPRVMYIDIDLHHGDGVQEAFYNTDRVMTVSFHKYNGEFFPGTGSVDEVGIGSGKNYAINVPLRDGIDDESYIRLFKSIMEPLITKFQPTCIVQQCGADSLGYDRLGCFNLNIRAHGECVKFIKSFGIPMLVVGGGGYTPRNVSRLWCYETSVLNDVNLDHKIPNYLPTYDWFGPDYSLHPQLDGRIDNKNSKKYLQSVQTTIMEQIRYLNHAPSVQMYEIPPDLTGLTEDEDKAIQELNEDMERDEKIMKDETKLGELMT"},
  "source": "paper PMC3516536",
  "molecular_target": "Set3-3HA (C. albicans)",
  "assay": "co-IP; Set3-3HA immunoprecipitated from whole cell extracts with anti-HA (3F10) agarose beads; stringent lysis buffer (PBS with 300 mM NaCl, 1% Triton X-100, 2 mM DTT); immunoblot for Hos2-9myc (anti-myc)",
  "note": "Results are given in words; binding and its absence hold for the method and conditions named. Binding seen in cells or lysates may run through a third protein. Binding calls can cover weak binding; strength is not graded here.",
  "data": [
    {"substance": "Hos2-9myc (from UniProt A0A1D8PJ17 1-454)", "values": [
      {"measurement": "binding", "result": "binds"}
    ]}
  ]
}
